We go through one substance from article PMC5341751.

By UniProt entry, the sequences of proteins in these tests, tags left out. Where a name states a change or a piece, a line headed by the entry shows the natural chain unless it says otherwise. Chains listed by the source or under a name are the forms on record and can include a tag or linker.
glyCD147-ECD (P35613-2, form named): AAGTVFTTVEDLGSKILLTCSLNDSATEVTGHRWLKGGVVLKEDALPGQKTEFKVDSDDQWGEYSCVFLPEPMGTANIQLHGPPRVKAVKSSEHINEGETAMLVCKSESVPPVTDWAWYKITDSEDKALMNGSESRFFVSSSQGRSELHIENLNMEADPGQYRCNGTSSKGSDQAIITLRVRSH

No constants are given. Whether binding was seen depends on the method and setting.

The target in this experiment is T1, Syndecan-1 extracellular region (UniProt P18827).
T1 sequence (chain, isotopically labeled): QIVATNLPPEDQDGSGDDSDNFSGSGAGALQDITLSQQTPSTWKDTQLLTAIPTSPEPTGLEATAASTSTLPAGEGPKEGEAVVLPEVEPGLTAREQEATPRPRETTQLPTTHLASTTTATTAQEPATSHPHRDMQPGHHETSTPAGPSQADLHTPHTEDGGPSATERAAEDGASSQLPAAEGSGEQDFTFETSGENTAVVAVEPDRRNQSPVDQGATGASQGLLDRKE
Description: NMR titration; isotopically labeled Syndecan-1 with glyCD147-ECD; 25 °C; 50 mM phosphate, 50 mM NaCl, pH 6.5; both purified.

On to “glyCD147-ECD (from UniProt P35613-2 22-205) (domain or fragment)”, for which the binding entry is “no binding”.
